PubChem BioAssay AID1671195 | Yale University | 2021
Screen: 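Genes whose knockdown alters LDL uptake in liver cancer cells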 (primary screen). System: human Huh7 hepatoma cells. Knock-down reagent: siRNA pool against human genes, 18 nM. Time to read-out: about 2 to 2.5 days of knockdown, then 8 h LDL uptake. Conditions: DiI-labelled LDL at 30 µg/ml for 8 h, in lipoprotein-deficient serum medium. Detection: 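Per-cell DiI-LDL intensity by automated imaging; well means scaled to the plate median and given as a robust z-score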. Scale: robust z-score: higher = more LDL uptake after knockdown. Active means: 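a gene counts as active if at least two replicate z-scores exceed ±2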.
The whole screen tested about 22,000 reagents; this is a random part of them. In the full data, about 1,510 (6.9%) were called active. 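Active includes knockdowns raising or lowering LDL uptake; positive z-scores mean more uptake, negative mean less.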 No sequences are given here.

After knock-down of RAB7B, the record shows robust z-score, replicate 1 = 1.35; robust z-score, replicate 2 = 1.52; robust z-score, replicate 3 = 0.379; inactive. Knock-down of PPP1CB resulted in: robust z-score, replicate 1 = 0.0765; robust z-score, replicate 2 = 0.12; robust z-score, replicate 3 = 0.752; inactive. For LOC343484 (retired record), the entry reads robust z-score, replicate 1 = -0.603; robust z-score, replicate 2 = -0.281; robust z-score, replicate 3 = -0.369; inactive. Against CTSG, the values are robust z-score, replicate 1 = 1.49; robust z-score, replicate 2 = 0.221; robust z-score, replicate 3 = 1.08; inactive. Against BCAP31, the values are robust z-score, replicate 1 = -0.221; robust z-score, replicate 2 = -0.956; robust z-score, replicate 3 = -0.683; inactive. With knock-down of TCF15, the screen gave robust z-score, replicate 1 = 0.581; robust z-score, replicate 2 = -0.207; robust z-score, replicate 3 = -0.38; inactive.

After knock-down of ELP3 the results were robust z-score, replicate 1 = -1.63; robust z-score, replicate 2 = 0.86; robust z-score, replicate 3 = 0.912; inactive. With knock-down of CARD9, the record shows robust z-score, replicate 1 = -1.68; robust z-score, replicate 2 = -2.04; robust z-score, replicate 3 = -1.79; inactive. POLE2 showed robust z-score, replicate 1 = -0.453; robust z-score, replicate 2 = -1.26; robust z-score, replicate 3 = -0.998; inactive. Depletion of SLC12A5 resulted in: robust z-score, replicate 1 = -1.27; robust z-score, replicate 2 = -0.679; robust z-score, replicate 3 = -0.95; inactive. Against ITPKB, the values are robust z-score, replicate 1 = 1.24; robust z-score, replicate 2 = 1.37; robust z-score, replicate 3 = 1.46; inactive. Depletion of ZNF80 gave: robust z-score, replicate 1 = -0.619; robust z-score, replicate 2 = -1.04; robust z-score, replicate 3 = -0.664; inactive.

LOC389019 (retired record) showed robust z-score, replicate 1 = -0.153; robust z-score, replicate 2 = -0.103; robust z-score, replicate 3 = -0.416; inactive. PLEC gave robust z-score, replicate 1 = -0.249; robust z-score, replicate 2 = -0.0204; robust z-score, replicate 3 = -0.526; inactive. After knock-down of NOX3 the results were robust z-score, replicate 1 = -1.47; robust z-score, replicate 2 = -0.746; robust z-score, replicate 3 = -0.962; inactive. RIOK2 gave robust z-score, replicate 1 = 0.382; robust z-score, replicate 2 = 0.5; robust z-score, replicate 3 = 1.26; inactive.

A stretch of the results above:
POLE2 — robust z-score, replicate 1 = -0.453; robust z-score, replicate 2 = -1.26; robust z-score, replicate 3 = -0.998; outcome = inactive
SLC12A5 — robust z-score, replicate 1 = -1.27; robust z-score, replicate 2 = -0.679; robust z-score, replicate 3 = -0.95; outcome = inactive

Continued.
With knock-down of DNAH9, the record shows robust z-score, replicate 1 = 0.0635; robust z-score, replicate 2 = -0.0809; robust z-score, replicate 3 = -0.347; inactive. After knock-down of HARS2 the results were robust z-score, replicate 1 = -1.29; robust z-score, replicate 2 = -0.62; robust z-score, replicate 3 = -0.37; inactive. Against ZNF844 the deposit lists robust z-score, replicate 1 = 0.284; robust z-score, replicate 2 = 0.0721; robust z-score, replicate 3 = 0.156; inactive. With knock-down of LOC441354 (retired record), the record shows robust z-score, replicate 1 = -0.684; robust z-score, replicate 2 = -0.949; robust z-score, replicate 3 = -1.17; inactive. With knock-down of VAMP4 the results were robust z-score, replicate 1 = 1.55; robust z-score, replicate 2 = 0.777; robust z-score, replicate 3 = 2.06; inactive. LINC01242 scored robust z-score, replicate 1 = 1.48; robust z-score, replicate 2 = 1.34; robust z-score, replicate 3 = 2; inactive.

With knock-down of LOC285442 the results were robust z-score, replicate 1 = 0.248; robust z-score, replicate 2 = -0.128; robust z-score, replicate 3 = 0.0745; inactive. Silencing of TAF6 gave: robust z-score, replicate 1 = -0.618; robust z-score, replicate 2 = -0.477; robust z-score, replicate 3 = -0.165; inactive.
